Test results: PMC12040169 (PLOS Biology, 2025)
The other results are listed elsewhere or left out.

tested on: T1, CTL2-GFP (C. trachomatis L2/434/Bu, GFP-expressing); parameters: species or system HeLa; Intracellular C. trachomatis growth in HeLa cells, bulk GFP fluorescence relative to DMSO; details: bulk GFP, single well; 28.5 h, 10 µM; inhibitor
T1 construct: L2/434/Bu, GFP-expressing

Row | Compound | % of control remaining [%]
1 | CN1CC[C@H](c2ccccc2)[C@@H]2[C@H]1CCCCN2C(=O)c1ccc(=O)oc1 [CBK285527] | 145.767
2 | CCN1CCCC1CNC(=O)c1ccc(-c2ccco2)nc1N1CCN(C(=O)c2ccco2)CC1 (stereo not shown) [CBK076206] | 110.702
3 | O=C1NC2(CCc3ccccc31)CCN(Cc1cccnc1)C2 (stereo not shown) [CBK284620] | 148.573
4 | CC(=O)c1cc(C(=O)NCc2ccc(C)cc2)n(C)c1 [CBK296750] | 115.887
5 | Cn1cnc2ccc(NC(=O)CC3CCN(C(=O)CC4CCCCC4)CC3)cc21 [CBK285961] | 149.641
6 | c1cncc(COc2cncc(OC3CCN(CCN4CCOCC4)C3)n2)c1 (stereo not shown) [CBK084463] | 128.704
7 | COC(=O)C(C)(C)NC(=O)c1ccn(-c2cc(C)ccc2OC)n1 [CBK305989] | 115.522
8 | CCN(CC)C(=O)C1CCCN(C(=O)NCCc2ccc(OC)c(OC)c2)C1 (stereo not shown) [CBK156134] | 126.363
9 | CCC(Oc1ccccc1)C(=O)Nc1cc(C)on1 (stereo not shown) [CBK288152] | 133.971
10 | FC(F)(F)c1ccccc1NC(=S)Nc1ncn(Cc2ccc(Cl)c(Cl)c2)n1 [CBK267130] | 173.511
11 | O=C(NC(=O)C1CCN(CCc2ccc3c(c2)CCO3)CC1)Nc1ccccc1Cl [CBK035147] | 126.014
12 | NC(=O)c1ccc(C(=O)OCc2ccc(-c3ccccc3)cc2)cc1 [CBK297736] | 104.566
13 | Cc1cccc(C)c1OCC(=O)NC(C)C(=O)O (stereo not shown) [CBK287185] | 122.534
14 | O=C(CSc1nc2[nH]ncc2c(=O)n1-c1ccccc1)Nc1nsc(-c2ccccc2)n1 [CBK266486] | 110.666
15 | COc1ccc(Cl)cc1NC(=O)Cn1nc(-c2ccccc2)ccc1=O [CBK270124] | 133.656
16 | CCc1cn(CC(C(=O)OC)N(C)C)c(=O)[nH]c1=O (stereo not shown) [CBK289706] | 111.306
17 | CCc1nc(COC(=O)C2CCN(C(=O)c3ccc(F)cc3)CC2)cs1 [CBK305725] | 105.587
18 | CCN1C(=O)C2(CC(=O)N(Cc3ccccc3)C2=O)c2cc(Cl)ccc21 (stereo not shown) [CBK075233] | 163.974
19 | CCOc1ccc(S(=O)(=O)N2CCCC(C(=O)NCCO)C2)cc1 (stereo not shown) [CBK269968] | 118.105
20 | Cc1ccc(-n2nnc(C(=O)N3CCCCC3C(=O)O)c2C)cc1 (stereo not shown) [CBK304109] | 146.994
21 | COc1cc2c(=O)n(C)c3nncn3c2cc1OC [CBK288182] | 108.351
22 | COc1ccc(/C=C/C(=O)O)cc1S(=O)(=O)N1CCCC1 [CBK058388] | 121.15
23 | O=C(c1cccnc1)C1CCN(C(=O)Cc2cccc(F)c2)CC1 [CBK283506] | 108.038
24 | CCOC(=O)CSc1nc2ccc(I)cc2c(=O)n1Cc1ccccc1 [CBK266602] | 133.871
25 | Cc1ccc(C2CCCN2C(=O)C(C)Cn2cncn2)cc1C (stereo not shown) [CBK282213] | 106.924
26 | Cc1cccc(-n2nc3c4nonc4ccc3[n+]2[O-])c1C [CBK264626] | 100
27 | COCCn1c(SCC(=O)N2CCCc3ccccc32)nc(O)cc1=O [CBK304191] | 63.7427

Row | Compound | % of control remaining [%]
28 | COc1ccc(-c2cc(C(=O)N/N=C/c3c(C)[nH]c4ccccc34)[nH]n2)cc1 [CBK262884] | 83.2264
29 | c1ccc2sc(-c3cc(Nc4ccc5[nH]ccc5c4)ncn3)cc2c1 [CBK090858] | 184.046
30 | O=C(c1c(NS(=O)(=O)c2ccc3ccccc3c2)sc2c1CCCC2)N1CCOCC1 [CBK028636] | 109.111
31 | COc1cc(CN2CCN(C(=O)c3cccnc3)CC2)cc(OC)c1O [CBK265210G] | 100
32 | NC(=O)[C@H]1C[C@@H](O)[C@H](O)[C@H]2[C@@H]1S/C(=N\c1ccc(Cl)cc1)N2Cc1ccccc1 [CBK288940] | 109.39
33 | O=C(O)C(=C/C=C/Br)C(=O)O [CBK260906] | 110.817
34 | O=C1CC(N2CCN(C3CC(=O)N(Cc4ccccc4)C3=O)CC2)C(=O)N1Cc1ccccc1 (stereo not shown) [CBK269198] | 114.792
35 | CN1CCN(c2nccnc2-c2cccnc2)CC1 [CBK036612] | 130.46
36 | O=C(CN1C(=O)N2CCN=C2c2ccccc21)NC1CCCC1 [CBK283959] | 112.828
37 | COc1ccc(Cl)cc1NC(=O)C(=O)NCC1CCCO1 (stereo not shown) [CBK263823] | 100
38 | O=C(O)c1cc(NC(=O)c2cccc(N3C(=O)c4ccccc4C3=O)c2)cc(C(=O)O)c1 [CBK263338] | 116.982
39 | Cc1cccc(Nc2nccc(-n3ccc(C)n3)n2)c1 [CBK288616] | 144.977
40 | COc1cc(/C=C2\SC(=N)NC2=O)cc(Cl)c1OS(=O)(=O)c1ccc(NC(C)=O)cc1 [CBK264502] | 125.687
41 | COCCN1C(=O)CN(Cc2ccccc2)C1=O [CBK162369] | 157.5
42 | CC(C)C(NC(=O)CN1CSCC1=O)c1ccc(C(C)(C)C)cc1 (stereo not shown) [CBK297899] | 139.583
43 | COc1ccc(-c2cc3cccn(CC(=O)N(C)C)c-3n2)cc1 [CBK285382] | 106.43
44 | CCOc1ccc(Cl)cc1S(=O)(=O)NCCO [CBK269996] | 141.413
45 | Nc1nccnc1C(=O)N1CCN(C(=O)Cc2c[nH]c3ccccc23)CC1 [CBK298339] | 129.301
46 | CCOc1ccccc1CNCc1ccccn1 [CBK268041C] | 103.471
47 | Cc1ccc(C)c(OCCNCc2ccco2)c1Cl [CBK269718C] | 162.847
48 | COc1ccc2[nH]c3c(c2c1)CCNC31CCN(CCC2CCCCC2)C1 (stereo not shown) [CBK040111T] | 122.359
49 | Cn1c(CCC(=O)Nc2c[nH]c3ccccc23)nc2ccccc21 [CBK282507] | 103.327
50 | Oc1c2c(nn1Cc1ccccc1)CCCC2 [CBK089898] | 131.013
51 | COc1cc(CNC(=O)N2CCN(C3CCN(C)CC3)CC2)cc(OC)c1OC [CBK155893] | 108.57
52 | CCc1nn(CC(=O)N2CCCCC2)c(=O)c2cc3oc(C)cc3n12 [CBK283575] | 139.974
53 | CN(C)CC1CCCCN1C(=O)[C@@H]1C[C@@H]2C=C[C@H]1C2 (stereo partly shown) [CBK282086] | 124.815
54 | CC(C)Nc1nccnc1-c1ccc(CO)cc1 [CBK088519] | 100.833

Look-ups from above.
In % of control remaining [%], Cc1cccc(C)c1OCC(=O)NC(C)C(=O)O (stereo not shown) [CBK287185] reads 122.534
In % of control remaining [%], O=C(c1cccnc1)C1CCN(C(=O)Cc2cccc(F)c2)CC1 [CBK283506] reads 108.038
In % of control remaining [%], O=C(O)C(=C/C=C/Br)C(=O)O [CBK260906] reads 110.817
In % of control remaining [%], COc1cc(CN2CCN(C(=O)c3cccnc3)CC2)cc(OC)c1O [CBK265210G] reads 100
In % of control remaining [%], COc1ccc(Cl)cc1NC(=O)C(=O)NCC1CCCO1 (stereo not shown) [CBK263823] reads 100
In % of control remaining [%], COc1ccc(/C=C/C(=O)O)cc1S(=O)(=O)N1CCCC1 [CBK058388] reads 121.15

(more compounds)

Row | Compound | % of control remaining [%]
55 | COCCOC1CN(Cc2cn(-c3ccc(Br)cc3)nc2C(C)C)C1 [CBK304852] | 115.165
56 | c1ccc2nc(N3CCCC3)c(Sc3nccs3)nc2c1 [CBK093794] | 80.0935
57 | CC(C)N(Cc1cccnc1)C(=O)Cn1c(C2CC2)nc2ccccc21 [CBK306156] | 102.846
58 | OCn1nc(-c2ccc(Cl)cc2Cl)oc1=S [CBK288410] | 99.1484
59 | CCCN1CCC(CNC(=O)Cn2ccc3ccc(F)cc32)CC1 [CBK282573] | 126.596
60 | c1coc(-c2ccc(Nc3ccc4c(c3)OCCO4)nc2)c1 [CBK037765] | 149.936
61 | N#CCCN(CCc1ccccc1)S(=O)(=O)c1cccc2nsnc12 [CBK261138] | 116
62 | Cc1cc(NC(=O)COc2ccccc2)nc2c1c(=O)oc1ccccc12 [CBK287436] | 100
63 | CCCC(=O)c1ccc(S(=O)(=O)N2CCCN(Cc3c(-c4ccccc4)nc4sccn34)CC2)cc1 [CBK062912] | 101.093
64 | Cc1ccc(CN(CC(=O)N2CCC(C(N)=O)CC2)S(=O)(=O)c2ccc(Br)cc2)cc1 [CBK265813] | 171.139
65 | O=C(CN1CCOCC1)Nc1ccc(S(=O)(=O)N2CCCC2)cc1 [CBK268468] | 121.768
66 | CC(=O)c1cc2c(cc1NC(=O)CSc1ccccn1)OCO2 [CBK266225] | 138.549
67 | COc1cccc(-c2nc(CC(=O)N3CCC(C(=O)O)CC3)cs2)c1 [CBK286797] | 128.046
68 | O=C(Nc1ccccc1-c1nc2ccccc2[nH]1)c1ccc(S(=O)(=O)N2CCCC2)cc1 [CBK263252] | 118.342
69 | CCOC(=O)c1ccc(S(=O)(=O)N2CCCCC2)cc1 [CBK069738] | 117.552
70 | Cc1ccccc1-c1cncc(C2CCN(C(=O)CCOc3ccccc3)CC2)n1 [CBK286154] | 132.649
71 | OCC1CCCN1c1cncc(-c2cccnc2)n1 (stereo not shown) [CBK065439] | 176.495
72 | O=C(Nc1ccc(Br)cc1)C1CC(O)CN1C(=O)OCc1ccccc1 (stereo not shown) [CBK263233] | 100.205
73 | CCn1nc2c3ccccc3nc(C3CC3)n2c1=O [CBK284008] | 103.353
74 | Cc1[nH]c(=O)[nH]c(=S)c1C(=O)Nc1ccc(C(F)(F)F)cc1 [CBK115510] | 114.406
75 | O=C1NC2=C(C(=O)N(CC3CCCO3)C2)C(c2ccc(F)c(F)c2)N1 (stereo not shown) [CBK282271] | 150.511
76 | O=C(C[C@@H]1O[C@H](CNS(=O)(=O)c2ccc(Cl)cc2)[C@@H](O)[C@H]1O)N1CCCC1 [CBK288911] | 90.4814
77 | O=C(CC1CCCCO1)Nc1cccc(Cn2ccnc2)c1 (stereo not shown) [CBK282204] | 125.117
78 | O=C(c1ccco1)N1CCN(S(=O)(=O)c2ccc3c(c2)C(=NO)c2cc(S(=O)(=O)N4CCN(C(=O)c5ccco5)CC4)ccc2-3)CC1 [CBK262103] | 106.218
79 | Cn1c(=O)oc2cc(Br)ccc21 [CBK027375] | 134.499
